Reference: PubChem BioAssay AID330 (DTP/NCI, 2004)
The list is a part of this screen's results and no random one: it gathers tests that were run many times, whatever their T/C, doses with no T/C, and many T/C values between a quarter and a half above the control. Other doses and runs of a compound stand elsewhere. T/C gives the treated animals as a percentage of the vehicle group. Some doses have a count of surviving animals in place of a T/C: the source files T/C as zero there, which appears to mark a toxic dose or a test without result, not a measured value. Some doses without a T/C left all or most animals alive at the check, yet need not have been tolerated: survival well below the control is almost never listed, so the zero probably covers shortened survival too. Survivors were counted at the toxicity check, usually on the fifth day, unless a day is given; later deaths do not show. Schedule codes are those of the source, taken here to give the interval after Q, in days (D) or hours (H), and the number of doses after X. Where survival is the endpoint, this PubChem deposit counts one and a half times the control or more as active, and values a quarter to a half above the control carry no call in these data; other NCI protocols may use other cut-offs. Some entries hold several experiments; the results are listed from low to high. Some schedule codes hold Z or #, which are not explained here. Some T/C values carry the count of animals alive at the toxicity check (mostly the fifth day); without a count, all were alive then.

Test system: P388 leukemia ip, CD2F1 mice, survival T/C
Assay: NCI In Vivo Anticancer Drug Screen. Data for tumor model P388 Leukemia (intraperitoneal) in CD2F1 (CDF1) mice
Conditions: T/C endpoint: median survival time, higher T/C = longer survival
[1] = dose: 50.0 mg/kg/injection, schedule: Q01DX009 (ip), vehicle: saline with Tween-80
[2] = dose: 240.0 mg/kg/injection, schedule: Q01DX005 (ip), vehicle: saline with Tween-80
[3] = dose: 100.0 mg/kg/injection, schedule: Q01DX005 (ip), vehicle: saline with Tween-80
[4] = dose: 200.0 mg/kg/injection, schedule: Q01DX005 (ip), vehicle: saline with Tween-80
[5] = dose: 100.0 mg/kg/injection, schedule: Q01DX009 (ip), vehicle: saline with Tween-80
[6] = dose: 200.0 mg/kg/injection, schedule: Q01DX009 (ip), vehicle: saline with Tween-80
[7] = dose: 50.0 mg/kg/injection, schedule: Q01DX005 (ip), vehicle: saline with Tween-80

**Q.** What does the source list for CCC1=C[C@H]2CN(CCc3c([nH]c4ccccc34)[C@@](C(=O)OC)(c3cc4c(cc3OC)N(C)[C@H]3[C@@](O)(C(=O)NCCSC)[C@H](O)[C@]5(CC)C=CCN6CC[C@]43[C@@H]65)C2)C1?
**A.** T/C (dose: 1.0 mg/kg/injection, schedule: Q01DX001 (ip), vehicle: water): 125 % of control; T/C (dose: 4.0 mg/kg/injection, schedule: Q01DX001 (ip), vehicle: water): 135 and 139 % of control; T/C (dose: 8.0 mg/kg/injection, schedule: Q01DX001 (ip), vehicle: water): 148 and 148 % of control [5 of 6 alive]

**Q.** With CC(C)(C)NC(=O)OCc1c(COC(=O)NC(C)(C)C)c(-c2ccc(Cl)c(Cl)c2)n2c1CCC2 as the molecule, how does the T/C (dose: 12.5 mg/kg/injection, schedule: Q01DX009 (ip), vehicle: distilled water + Tween-80) read?
**A.** Its T/C is 133 % of control.

**Q.** What about the T/C (dose: 25.0 mg/kg/injection, schedule: Q01DX009 (ip), vehicle: distilled water + Tween-80, evaluated on day 30) of the same molecule?
**A.** The T/C was 138 % of control.

**Q.** What about the T/C (dose: 25.0 mg/kg/injection, schedule: Q01DX009 (ip), vehicle: distilled water + Tween-80, evaluated on day 45) of the same molecule?
**A.** Its T/C is 146 % of control.

**Q.** And the T/C (dose: 200.0 mg/kg/injection, schedule: Q01DX009 (ip), vehicle: distilled water + Tween-80)?
**A.** The T/C was 144 % of control.

**Q.** How did the survivor count (dose: 200.0 mg/kg/injection, schedule: Q01DX009 (ip), vehicle: saline) turn out when CC(C)NCC(O)c1cc(Br)c(Br)s1 (stereo unspecified) was run?
**A.** Its survivor count is 1 of 6.

**Q.** With NOCc1cccc(Cl)c1 as the molecule, how does the survivor count [1] read?
**A.** The survivor count was 6 of 6.

**Q.** For CSc1nc(NC2OCC(OC(C)=O)C(OC(C)=O)C2OC(C)=O)c(N=C(C)C(C)=O)c(=O)n1C (stereo unspecified), which survivor count [2] is on record?
**A.** The survivor count was 6 of 6.

**Q.** How did the survivor count [3] turn out when CC(C)(C)[Si](OC(=O)CCCc1ccc(N(CCCl)CCCl)cc1)(c1ccccc1)c1ccccc1 was run?
**A.** The survivor count was 5 of 5.

**Q.** What about the survivor count [4] of the same molecule?
**A.** The survivor count was 0 of 5.

**Q.** For Cc1cc(N(C)C)nc2cc(N)ccc12, which survivor count [5] is on record?
**A.** The survivor count was 1 of 6.

**Q.** What about the survivor count [6] of the same molecule?
**A.** The survivor count was 0 of 6.

**Q.** NC1C[S][Sn][O]C1=O (stereo unspecified) was tested. Which survivor count (dose: 400.0 mg/kg/injection, schedule: Q04DX003 (ip), vehicle: saline with Tween-80) did it give?
**A.** Its survivor count is 1 of 6.

**Q.** What does the source list for CN=C(N)N/N=C(\c1ccccc1)c1ccc(F)cc1?
**A.** T/C (dose: 50.0 mg/kg/injection, schedule: Q04DX002 (ip), vehicle: saline with Tween-80): 125 and 127 % of control; T/C (dose: 100.0 mg/kg/injection, schedule: Q04DX002 (ip), vehicle: saline with Tween-80): 148 % of control [5 of 6 alive]; survivor count (dose: 200.0 mg/kg/injection, schedule: Q04DX002 (ip), vehicle: saline with Tween-80): 3 of 6; survivor count (dose: 400.0 mg/kg/injection, schedule: Q04DX002 (ip), vehicle: saline with Tween-80): 0 of 6

**Q.** What does the source list for COc1cccc2c(NCCCCCCNc3c4ccccc4nc4c(OC)cccc34)c3ccccc3nc12?
**A.** T/C (dose: 1.25 mg/kg/injection, schedule: Q## X009 (ip), vehicle: lactic acid): 144 % of control; T/C (dose: 2.5 mg/kg/injection, schedule: Q01DX009 (ip), vehicle: other): 144 % of control; T/C (dose: 3.75 mg/kg/injection, schedule: Q01DX009 (ip), vehicle: other): 144 % of control; T/C (dose: 5.0 mg/kg/injection, schedule: Q01DX009 (ip), vehicle: other): 144 % of control; T/C (dose: 7.5 mg/kg/injection, schedule: Q01DX009 (ip), vehicle: other): 140 % of control; T/C (dose: 10.0 mg/kg/injection, schedule: Q01DX009 (ip), vehicle: other): 137 % of control; survivor count (dose: 15.0 mg/kg/injection, schedule: Q01DX009 (ip), vehicle: other): 3 of 6; survivor count (dose: 20.0 mg/kg/injection, schedule: Q01DX009 (ip), vehicle: other): 1 of 6

**Q.** Which results are given for CC1(C)CCC2=C(O1)c1ccccc1C(=O)C2=O?
**A.** T/C (dose: 100.0 mg/kg/injection, schedule: Q01DX009 (ip), vehicle: Klucel (hydroxypropylcellulose) (HPC)): 129 % of control; survivor count (dose: 200.0 mg/kg/injection, schedule: Q01DX009 (ip), vehicle: Klucel (hydroxypropylcellulose) (HPC)): 1 of 6

**Q.** Which results are given for CN(C)CC(CN(C)C)C(=O)/C=C/c1ccc(O)cc1?
**A.** survivor count (dose: 12.5 mg/kg/injection, schedule: Q01DX005 (ip), vehicle: saline): 1 of 6; survivor count (dose: 25.0 mg/kg/injection, schedule: Q01DX005 (ip), vehicle: saline): 0 of 6; survivor count (dose: 50.0 mg/kg/injection, schedule: Q01DX005 (ip), vehicle: saline): 0 of 6; survivor count (dose: 100.0 mg/kg/injection, schedule: Q01DX005 (ip), vehicle: saline): 0 of 6; survivor count (dose: 200.0 mg/kg/injection, schedule: Q01DX005 (ip), vehicle: saline): 0 of 6

**Q.** COc1ccc2c(c1CCl)C(=O)OC2 was tested. Which survivor count [5] did it give?
**A.** Its survivor count is 6 of 6.

**Q.** What about the survivor count [6] of the same molecule?
**A.** Its survivor count is 6 of 6.

**Q.** With O=c1oc(-c2ccccc2Br)ns1 as the molecule, how does the survivor count (dose: 400.0 mg/kg/injection, schedule: Q01DX009 (ip), vehicle: Klucel (hydroxypropylcellulose) (HPC)) read?
**A.** Its survivor count is 3 of 6.

**Q.** How did the T/C (dose: 12.5 mg/kg/injection, schedule: Q01DX001 (ip), vehicle: Klucel (hydroxypropylcellulose) (HPC)) turn out when CN1CC(NC(=O)N(CCCl)N=O)CC2c3cccc4c3c(cn4N=O)CC21 (stereo unspecified) was run?
**A.** The T/C was 130 % of control.

**Q.** What about the T/C (dose: 25.0 mg/kg/injection, schedule: Q01DX001 (ip), vehicle: Klucel (hydroxypropylcellulose) (HPC)) of the same molecule?
**A.** Its T/C is 135 and 137 % of control.

**Q.** And the T/C (dose: 50.0 mg/kg/injection, schedule: Q01DX001 (ip), vehicle: Klucel (hydroxypropylcellulose) (HPC))?
**A.** Its T/C is 144 % of control.

**Q.** With COc1c2ccoc2nc2c(O)c3c(c(CC=C(C)C)c12)OCO3 as the molecule, how does the survivor count (dose: 23.75 mg/kg/injection, schedule: Q01DX005 (ip), vehicle: Klucel (hydroxypropylcellulose) (HPC)) read?
**A.** Its survivor count is 5 of 5.

**Q.** And the survivor count (dose: 95.0 mg/kg/injection, schedule: Q01DX005 (ip), vehicle: Klucel (hydroxypropylcellulose) (HPC))?
**A.** Its survivor count is 5 of 5.

**Q.** And the survivor count (dose: 190.0 mg/kg/injection, schedule: Q01DX005 (ip), vehicle: Klucel (hydroxypropylcellulose) (HPC))?
**A.** Its survivor count is 5 of 5.

**Q.** For CC1(C)CCC(C2=CC(=O)c3c(O)ccc(O)c3C2=O)O1 (stereo unspecified), which survivor count [7] is on record?
**A.** Its survivor count is 0 of 5.

**Q.** What about the survivor count [3] of the same molecule?
**A.** Its survivor count is 0 of 5.

**Q.** And the survivor count [4]?
**A.** The survivor count was 0 of 5.

**Q.** For CCOC1OCN(C(C)C)CC1(C)C (stereo unspecified), which T/C [1] is on record?
**A.** Its T/C is 130 % of control.

**Q.** What about the T/C [5] of the same molecule?
**A.** Its T/C is 125 % of control.

**Q.** What about the T/C [6] of the same molecule?
**A.** The T/C was 125 % of control [4 of 6 alive].

**Q.** CC1CCC23COC(=O)C2=CCCC3C12CC(c1ccoc1)OC2=O (stereo unspecified) was tested. Which survivor count (dose: 0.25 mg/kg/injection, schedule: Q01DX009 (ip), vehicle: Klucel (hydroxypropylcellulose) (HPC)) did it give?
**A.** Its survivor count is 6 of 6.

**Q.** With c1ccc(CN2CCC3(CC2)CO3)cc1 as the molecule, how does the survivor count (dose: 400.0 mg/kg/injection, schedule: Q01DX001 (ip), vehicle: Klucel (hydroxypropylcellulose) (HPC)) read?
**A.** The survivor count was 0 of 6.

**Q.** Which survivor count (dose: 50.0 mg/kg/injection, schedule: Q01DX009 (ip), vehicle: Klucel (hydroxypropylcellulose) (HPC)) does the source give for NNc1n[nH]c(=S)n1N here?
**A.** The survivor count was 2 of 6.

**Q.** For O=c1c2ccccc2ncn1CC1(O)CC2NCCCC2O1 (stereo unspecified), which survivor count (dose: 40.0 mg/kg/injection, schedule: Q01DX009 (ip), vehicle: Klucel (hydroxypropylcellulose) (HPC)) is on record?
**A.** Its survivor count is 2 of 6.

**Q.** With CCN1c2ccccc2S(=O)(=O)n2c(/C=C/c3ccc(OC)cc3)nnc21 as the molecule, how does the survivor count (dose: 400.0 mg/kg/injection, schedule: Q01DX001 (ip), vehicle: saline with Tween-80) read?
**A.** The survivor count was 6 of 6.

**Q.** Which survivor count (dose: 25.0 mg/kg/injection, schedule: Q01DX009 (ip), vehicle: saline with Tween-80) does the source give for S=C1N=C2c3ccccc3C2C(=S)S1 (stereo unspecified) here?
**A.** Its survivor count is 6 of 6.

**Q.** And the survivor count [1]?
**A.** Its survivor count is 6 of 6.

**Q.** O=C1CC2C3C1N(c1ccc(Cl)cc1)C1(Nc4ccc(Cl)cc4)C(=O)CC(C31)N2c1ccc(Cl)cc1 (stereo unspecified) was tested. Which survivor count (dose: 60.0 mg/kg/injection, schedule: Q01DX005 (ip), vehicle: Klucel (hydroxypropylcellulose) (HPC)) did it give?
**A.** Its survivor count is 6 of 6.

**Q.** And the survivor count (dose: 120.0 mg/kg/injection, schedule: Q01DX005 (ip), vehicle: Klucel (hydroxypropylcellulose) (HPC))?
**A.** The survivor count was 6 of 6.

**Q.** What about the survivor count (dose: 240.0 mg/kg/injection, schedule: Q01DX005 (ip), vehicle: Klucel (hydroxypropylcellulose) (HPC)) of the same molecule?
**A.** The survivor count was 6 of 6.

**Q.** Which survivor count [7] does the source give for CCN(CC)C(=S)n1nc(C)c(N=Nc2cccc(Cl)c2Cl)c1C here?
**A.** The survivor count was 6 of 6.

**Q.** For CC(C)c1cccc(C(C)C)c1NC(=O)OCCN(C)C, which survivor count [2] is on record?
**A.** Its survivor count is 0 of 6.
